Measured data: PubChem BioAssay AID1159578 (Peter MacCallum Cancer Centre, 2015)

Assay: 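Genome-wide hunt for genes controlling movement of lymphatic endothelial cells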 (primary screen)
Cells: human lymphatic endothelial cells
Knock-down reagent: siRNA pool against human genes, 40 nM
Time to read-out: 48 h after transfection
Measurement: 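High-content imaging of dye-stained cells in a scratch assay measures filled wound area and nuclei per well; duplicate means given as ratio to mock and robust z-score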
Reading the numbers: migration robust z-score: higher = faster migration into the scratch; nuclei per well: higher = more cells in the well
Call rule: 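Migration changed when robust z exceeds 2 or falls below -2 and mean nuclei number is at least 3300; otherwise not called changed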
Calls: active = migration changed; inactive = no migration change, or too few cells
The whole screen tested about 18,000 reagents; this is an unselected part. Of all reagents, about 1,030 (5.7%) are marked active. 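Inactive calls also include pools with fewer than 3300 nuclei, whose migration was not assessed.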 Raw values vary from plate to plate and are shown uncorrected. Further read-outs or replicates are left out here.

ELF4 | migration robust z-score: -2.57; migration class with cell-count check: migration z below -2; enough cells; nuclei per well, duplicate mean: 4042; Call: active
IL4R | migration robust z-score: -0.52; migration class with cell-count check: migration z between -2 and 2; enough cells; nuclei per well, duplicate mean: 4574; Call: inactive
LIMS1 | migration robust z-score: -1.04; migration class with cell-count check: migration z between -2 and 2; enough cells; nuclei per well, duplicate mean: 6795; Call: inactive
DEFB103B | migration robust z-score: -1.63; migration class with cell-count check: migration z between -2 and 2; enough cells; nuclei per well, duplicate mean: 5762; Call: inactive

In a second layout: results already given.
target gene	migration robust z-score	migration class with cell-count check	nuclei per well, duplicate mean	Call
ELF4	-2.57	migration z below -2; enough cells	4042	active
IL4R	-0.52	migration z between -2 and 2; enough cells	4574	inactive

The results go on.
BLTP2 | migration robust z-score: -0.7; migration class with cell-count check: migration z between -2 and 2; enough cells; nuclei per well, duplicate mean: 4756; Call: inactive
ANKRD50 | migration robust z-score: -1.05; migration class with cell-count check: migration z between -2 and 2; enough cells; nuclei per well, duplicate mean: 3742; Call: inactive
VASP | migration robust z-score: 0.54; migration class with cell-count check: migration z between -2 and 2; enough cells; nuclei per well, duplicate mean: 6290; Call: inactive
CCNB1 | migration robust z-score: -1.87; migration class with cell-count check: under 3300 nuclei; migration not judged; nuclei per well, duplicate mean: 2888; Call: inactive
MAPK8IP1 | migration robust z-score: -0.12; migration class with cell-count check: migration z between -2 and 2; enough cells; nuclei per well, duplicate mean: 5951; Call: inactive
TTYH3 | migration robust z-score: -0.83; migration class with cell-count check: migration z between -2 and 2; enough cells; nuclei per well, duplicate mean: 4676; Call: inactive
WWC1 | migration robust z-score: 0.88; migration class with cell-count check: migration z between -2 and 2; enough cells; nuclei per well, duplicate mean: 5886; Call: inactive
PAQR4 | migration robust z-score: 1.7; migration class with cell-count check: migration z between -2 and 2; enough cells; nuclei per well, duplicate mean: 6206; Call: inactive
